Measured values reported in publication PMC9925306.
No constants are given. Whether binding was seen depends on the method and setting. Binding seen in cells or lysates may run through a third protein. Some entries that bind do so weakly or less than the wild type. For part of these data: Where a sequence is shown, tags or fusion partners need not be part of it.

Chains of the proteins cited; added tags and fusions are not shown.
UniProt P03126: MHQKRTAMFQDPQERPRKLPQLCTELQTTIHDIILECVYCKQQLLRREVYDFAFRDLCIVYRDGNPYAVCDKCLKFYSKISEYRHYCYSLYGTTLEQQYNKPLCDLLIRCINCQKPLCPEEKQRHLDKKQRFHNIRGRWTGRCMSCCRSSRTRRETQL
UniProt P06463: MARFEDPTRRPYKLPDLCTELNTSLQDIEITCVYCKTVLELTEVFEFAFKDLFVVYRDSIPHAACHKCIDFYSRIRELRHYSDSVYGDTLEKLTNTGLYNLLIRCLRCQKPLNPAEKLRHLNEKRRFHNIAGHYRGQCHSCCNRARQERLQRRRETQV
UniProt P03129: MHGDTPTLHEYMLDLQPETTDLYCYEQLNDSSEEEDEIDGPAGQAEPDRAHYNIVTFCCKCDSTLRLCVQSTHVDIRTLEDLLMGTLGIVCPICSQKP
UniProt P06788: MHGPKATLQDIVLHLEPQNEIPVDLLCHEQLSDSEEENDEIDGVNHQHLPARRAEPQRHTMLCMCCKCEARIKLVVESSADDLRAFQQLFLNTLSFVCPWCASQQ
UniProt P51948: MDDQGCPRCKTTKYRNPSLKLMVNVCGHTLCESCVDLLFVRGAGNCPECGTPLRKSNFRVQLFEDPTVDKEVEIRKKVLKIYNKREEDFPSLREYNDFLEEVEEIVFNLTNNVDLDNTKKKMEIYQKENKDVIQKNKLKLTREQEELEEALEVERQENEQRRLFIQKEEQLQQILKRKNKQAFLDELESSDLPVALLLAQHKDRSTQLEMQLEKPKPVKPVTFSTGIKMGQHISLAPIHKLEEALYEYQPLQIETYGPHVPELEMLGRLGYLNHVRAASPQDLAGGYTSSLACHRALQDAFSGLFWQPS
UniProt P12956: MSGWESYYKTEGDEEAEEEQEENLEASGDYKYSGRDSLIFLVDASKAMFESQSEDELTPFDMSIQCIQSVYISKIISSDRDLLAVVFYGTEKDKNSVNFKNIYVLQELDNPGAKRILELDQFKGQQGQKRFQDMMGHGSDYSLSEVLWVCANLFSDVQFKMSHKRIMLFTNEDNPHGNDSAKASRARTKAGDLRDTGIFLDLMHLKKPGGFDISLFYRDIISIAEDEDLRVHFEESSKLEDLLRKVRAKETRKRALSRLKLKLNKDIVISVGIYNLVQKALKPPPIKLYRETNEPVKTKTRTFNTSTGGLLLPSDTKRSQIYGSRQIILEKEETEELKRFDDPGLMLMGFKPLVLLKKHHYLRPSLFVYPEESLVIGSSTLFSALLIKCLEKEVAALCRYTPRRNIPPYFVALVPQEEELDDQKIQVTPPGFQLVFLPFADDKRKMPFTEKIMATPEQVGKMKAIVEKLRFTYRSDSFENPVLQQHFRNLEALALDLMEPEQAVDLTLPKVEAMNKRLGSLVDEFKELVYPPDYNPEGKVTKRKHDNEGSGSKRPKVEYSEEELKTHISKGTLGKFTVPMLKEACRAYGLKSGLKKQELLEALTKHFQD

Assays:
[1] = molecular target: 3xFLAG-HPV16 E6 (HPV16) (UniProt P03126); assay: co-IP; HEK-293T co-transfected with pCineo-3xFLAG HPV16 E6 or E7 and pSpica-N1 (Gluc1 fusion); lysis in 50 mM Tris-HCl pH7.4, 150 mM NaCl, 1 mM EDTA, 1% Triton X-100; anti-Flag M2 magnetic beads overnight; blot with anti-Gaussia luciferase antibody
[2] = molecular target: Gluc2-HPV18 E6 (HPV18) (UniProt P06463); assay: split reporter; Gaussia princeps luciferase complementation assay (GPCA): HEK-293T co-transfected with 100 ng pSpica-N2-HPV E6 or E7 (Gluc2) and 100 ng pSpica-N1 (Gluc1, DNA repair library); 24 h, Renilla lysis buffer 30 min at room temperature, luminescence as RLU or normalized luminescence ratio (NLR)
[3] = molecular target: Gluc2-HPV16 E6 (HPV16) (UniProt P03126); assay: as above
[4] = molecular target: Gluc2-HPV33 E6 (HPV33) (UniProt P06427); assay: as above
[5] = molecular target: Gluc2-HPV39 E6 (HPV39) (UniProt P24835); assay: as above
[6] = molecular target: 3xFLAG-HPV16 E7 (HPV16) (UniProt P03129); assay: co-IP; HEK-293T co-transfected with pCineo-3xFLAG HPV16 E6 or E7 and pSpica-N1 (Gluc1 fusion); lysis in 50 mM Tris-HCl pH7.4, 150 mM NaCl, 1 mM EDTA, 1% Triton X-100; anti-Flag M2 magnetic beads overnight; blot with anti-Gaussia luciferase antibody
[7] = molecular target: Gluc2-HPV16 E7 (HPV16) (UniProt P03129); assay: split reporter; Gaussia princeps luciferase complementation assay (GPCA): HEK-293T co-transfected with 100 ng pSpica-N2-HPV E6 or E7 (Gluc2) and 100 ng pSpica-N1 (Gluc1, DNA repair library); 24 h, Renilla lysis buffer 30 min at room temperature, luminescence as RLU or normalized luminescence ratio (NLR)
[8] = molecular target: T1, Gluc2-HPV39 E7 (HPV39) (UniProt P24837); assay: as above
T1 sequence: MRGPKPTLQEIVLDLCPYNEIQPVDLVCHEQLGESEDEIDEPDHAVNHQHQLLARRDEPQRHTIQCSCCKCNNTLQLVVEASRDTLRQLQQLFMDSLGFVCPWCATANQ

[9] = molecular target: Gluc2-HPV18 E7 (HPV18) (UniProt P06788); assay: as above
[10] = molecular target: T2, Gluc2-HPV33 E7 (HPV33) (UniProt P06429); assay: as above
T2 sequence: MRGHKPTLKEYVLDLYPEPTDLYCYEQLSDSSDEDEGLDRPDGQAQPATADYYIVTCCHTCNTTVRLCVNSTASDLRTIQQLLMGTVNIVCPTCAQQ

Measured: binding

Gluc1-CLK2 (from UniProt P49760 1-499)
binds: [1] | [2] | [3] | [4] | [5]

Gluc1-MNAT1 (from UniProt P51948 1-309)
binds: [1] | [2] | [3] | [4] | [5]

Gluc1-RPA1 (from UniProt P27694 1-616)
binds: [1] | [2] | [3] | [4] | [5]

Gluc1-UVSSA (from UniProt Q2YD98 1-709)
binds: [1] | [2] | [3] | [4] | [5]

Gluc1-XRCC6 (from UniProt P12956 1-609)
binds: [1] | [2] | [3] | [4] | [5]

B1: Gluc1-DNA2 (protein, UniProt P51530 1-1060)
chain: MEQLNELELLMEKSFWEEAELPAELFQKKVVASFPRTVLSTGMDNRYLVLAVNTVQNKEGNCEKRLVITASQSLENKELCILRNDWCSVPVEPGDIIHLEGDCTSDTWIIDKDFGYLILYPDMLISGTSIASSIRCMRRAVLSETFRSSDPATRQMLIGTVLHEVFQKAINNSFAPEKLQELAFQTIQEIRHLKEMYRLNLSQDEIKQEVEDYLPSFCKWAGDFMHKNTSTDFPQMQLSLPSDNSKDNSTCNIEVVKPMDIEESIWSPRFGLKGKIDVTVGVKIHRGYKTKYKIMPLELKTGKESNSIEHRSQVVLYTLLSQERRADPEAGLLLYLKTGQMYPVPANHLDKRELLKLRNQMAFSLFHRISKSATRQKTQLASLPQIIEEEKTCKYCSQIGNCALYSRAVEQQMDCSSVPIVMLPKIEEETQHLKQTHLEYFSLWCLMLTLESQSKDNKKNHQNIWLMPASEMEKSGSCIGNLIRMEHVKIVCDGQYLHNFQCKHGAIPVTNLMAGDRVIVSGEERSLFALSRGYVKEINMTTVTCLLDRNLSVLPESTLFRLDQEEKNCDIDTPLGNLSKLMENTFVSKKLRDLIIDFREPQFISYLSSVLPHDAKDTVACILKGLNKPQRQAMKKVLLSKDYTLIVGMPGTGKTTTICTLVRILYACGFSVLLTSYTHSAVDNILLKLAKFKIGFLRLGQIQKVHPAIQQFTEQEICRSKSIKSLALLEELYNSQLIVATTCMGINHPIFSRKIFDFCIVDEASQISQPICLGPLFFSRRFVLVGDHQQLPPLVLNREARALGMSESLFKRLEQNKSAVVQLTVQYRMNSKIMSLSNKLTYEGKLECGSDKVANAVINLRHFKDVKLELEFYADYSDNPWLMGVFEPNNPVCFLNTDKVPAPEQVEKGGVSNVTEAKLIVFLTSIFVKAGCSPSDIGIIAPYRQQLKIINDLLARSIGMVEVNTVDKYQGRDKSIVLVSFVRSNKDGTVGELLKDWRRLNVAITRAKHKLILLGCVPSLNCYPPLEKLLNHLNSEKLIIDLPSREHESLCHILGDFQRE
binds: [6] | [7] | [8] | [9] | [10]

B2: Gluc1-ALKBH2 (protein, UniProt Q6NS38 1-261)
chain: MDRFLVKGAQGGLLRKQEEQEPTGEEPAVLGGDKESTRKRPRREAPGNGGHSAGPSWRHIRAEGLDCSYTVLFGKAEADEIFQELEKEVEYFTGALARVQVFGKWHSVPRKQATYGDAGLTYTFSGLTLSPKPWIPVLERIRDHVSGVTGQTFNFVLINRYKDGCDHIGEHRDDERELAPGSPIASVSFGACRDFVFRHKDSRGKSPSRRVAVVRLPLAHGSLLMMNHPTNTHWYHSLPVRKKVLAPRVNLTFRKILLTKK
binds: [6] | [7] | [8] | [9] | [10]

B3: Gluc1-ENDOV (protein, UniProt Q8N8Q3 1-282)
chain: MALEAAGGPPEETLSLWKREQARLKAHVVDRDTEAWQRDPAFSGLQRVGGVDVSFVKGDSVRACASLVVLSFPELEVVYEESRMVSLTAPYVSGFLAFREVPFLLELVQQLREKEPGLMPQVLLVDGNGVLHHRGFGVACHLGVLTDLPCVGVAKKLLQVDGLENNALHKEKIRLLQTRGDSFPLLGDSGTVLGMALRSHDRSTRPLYISVGHRMSLEAAVRLTCCCCRFRIPEPVRQADICSREHIRKSLGLPGPPTPRSPKAQRPVACPKGDSGESSALC
binds: [6] | [7] | [8] | [9] | [10]

B4: Gluc1-PARP3 (protein, UniProt Q9Y6F1 1-533)
chain: MAPKPKPWVQTEGPEKKKGRQAGREEDPFRSTAEALKAIPAEKRIIRVDPTCPLSSNPGTQVYEDYNCTLNQTNIENNNNKFYIIQLLQDSNRFFTCWNRWGRVGEVGQSKINHFTRLEDAKKDFEKKFREKTKNNWAERDHFVSHPGKYTLIEVQAEDEAQEAVVKVDRGPVRTVTKRVQPCSLDPATQKLITNIFSKEMFKNTMALMDLDVKKMPLGKLSKQQIARGFEALEALEEALKGPTDGGQSLEELSSHFYTVIPHNFGHSQPPPINSPELLQAKKDMLLVLADIELAQALQAVSEQEKTVEEVPHPLDRDYQLLKCQLQLLDSGAPEYKVIQTYLEQTGSNHRCPTLQHIWKVNQEGEEDRFQAHSKLGNRKLLWHGTNMAVVAAILTSGLRIMPHSGGRVGKGIYFASENSKSAGYVIGMKCGAHHVGYMFLGEVALGREHHINTDNPSLKSPPPGFDSVIARGHTEPDPTQDTELELDGQQVVVPQGQPVPCPEFSSSTFSQSEYLIYQESQCRLRYLLEVHL
binds: [6] | [7] | [8] | [9] | [10]
